Measurements taken from paper PMC7527347.

The chains behind the UniProt entries cited, without tags or fusion partners. Where a name states a change or a piece, a line headed by the entry shows the natural chain unless it says otherwise. Residues count along the entry.
UniProt Q04206: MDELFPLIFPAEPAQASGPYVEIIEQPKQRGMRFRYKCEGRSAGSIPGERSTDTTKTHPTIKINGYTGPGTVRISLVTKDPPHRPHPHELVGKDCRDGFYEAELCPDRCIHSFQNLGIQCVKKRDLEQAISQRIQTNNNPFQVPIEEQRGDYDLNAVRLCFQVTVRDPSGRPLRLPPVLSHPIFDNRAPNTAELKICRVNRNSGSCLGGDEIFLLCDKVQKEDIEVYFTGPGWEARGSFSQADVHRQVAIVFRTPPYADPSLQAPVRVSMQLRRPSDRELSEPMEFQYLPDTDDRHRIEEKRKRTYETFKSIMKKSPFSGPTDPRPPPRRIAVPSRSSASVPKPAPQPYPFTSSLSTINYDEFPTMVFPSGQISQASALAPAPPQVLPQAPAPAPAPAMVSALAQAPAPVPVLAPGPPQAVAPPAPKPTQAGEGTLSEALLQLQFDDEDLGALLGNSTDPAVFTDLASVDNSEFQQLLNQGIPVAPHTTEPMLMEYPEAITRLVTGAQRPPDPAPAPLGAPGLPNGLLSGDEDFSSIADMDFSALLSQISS
UniProt P19838, residues 1-433: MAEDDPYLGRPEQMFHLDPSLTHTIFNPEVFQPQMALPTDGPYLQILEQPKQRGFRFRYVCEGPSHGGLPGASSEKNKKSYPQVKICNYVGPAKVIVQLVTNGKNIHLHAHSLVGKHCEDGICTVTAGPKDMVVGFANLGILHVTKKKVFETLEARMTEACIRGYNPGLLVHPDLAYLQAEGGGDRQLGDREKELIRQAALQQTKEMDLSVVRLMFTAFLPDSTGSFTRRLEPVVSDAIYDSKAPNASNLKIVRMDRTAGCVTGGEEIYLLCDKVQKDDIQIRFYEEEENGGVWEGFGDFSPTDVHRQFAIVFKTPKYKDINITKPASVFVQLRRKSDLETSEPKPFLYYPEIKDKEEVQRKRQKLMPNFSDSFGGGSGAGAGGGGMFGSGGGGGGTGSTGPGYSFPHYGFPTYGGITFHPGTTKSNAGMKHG
UniProt G5EFS1: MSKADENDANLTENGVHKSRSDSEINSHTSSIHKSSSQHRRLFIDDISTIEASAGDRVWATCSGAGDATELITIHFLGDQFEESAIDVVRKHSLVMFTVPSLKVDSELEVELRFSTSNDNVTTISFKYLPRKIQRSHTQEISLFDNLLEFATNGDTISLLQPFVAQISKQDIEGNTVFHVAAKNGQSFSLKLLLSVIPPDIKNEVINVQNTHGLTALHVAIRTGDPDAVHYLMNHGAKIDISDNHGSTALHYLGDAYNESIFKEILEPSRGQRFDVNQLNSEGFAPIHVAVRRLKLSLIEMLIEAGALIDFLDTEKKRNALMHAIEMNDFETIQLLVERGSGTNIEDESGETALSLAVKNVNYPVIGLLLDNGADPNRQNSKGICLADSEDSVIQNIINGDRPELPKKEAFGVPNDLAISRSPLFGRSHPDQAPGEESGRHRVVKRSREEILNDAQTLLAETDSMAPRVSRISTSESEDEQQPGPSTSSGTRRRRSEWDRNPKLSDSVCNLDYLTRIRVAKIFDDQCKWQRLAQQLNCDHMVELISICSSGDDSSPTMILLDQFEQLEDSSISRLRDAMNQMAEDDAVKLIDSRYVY

Legend:
[1] = target: NF-κB p65/RelA (human (endogenous in HEK-293T)) (UniProt Q04206); assay: co-IP; extracts from HEK-293T cells transfected with the HA-tagged proteins; association with p65/RelA and p50 read by Western blot
[2] = target: NF-κB p50 (human (endogenous in HEK-293T)) (UniProt P19838); assay: as above

- binding [1]: no binding
- binding [2]: no binding
Substance: HA-tagged IKB-1 (from UniProt G5EFS1)

No constants are given. Whether binding was seen depends on the method and setting. In cells and extracts the contact can be indirect.
